No constants are given. Whether binding was seen depends on the method and setting. Binding seen in cells or lysates may run through a third protein. These calls come from enrichment with a bait or labelling near it, and not all partners need be listed. Where a sequence is shown, tags or fusion partners need not be part of it.
Biological target: T1, GFP-Auxilin (wild type, human) (human) (UniProt O75061)
T1 sequence: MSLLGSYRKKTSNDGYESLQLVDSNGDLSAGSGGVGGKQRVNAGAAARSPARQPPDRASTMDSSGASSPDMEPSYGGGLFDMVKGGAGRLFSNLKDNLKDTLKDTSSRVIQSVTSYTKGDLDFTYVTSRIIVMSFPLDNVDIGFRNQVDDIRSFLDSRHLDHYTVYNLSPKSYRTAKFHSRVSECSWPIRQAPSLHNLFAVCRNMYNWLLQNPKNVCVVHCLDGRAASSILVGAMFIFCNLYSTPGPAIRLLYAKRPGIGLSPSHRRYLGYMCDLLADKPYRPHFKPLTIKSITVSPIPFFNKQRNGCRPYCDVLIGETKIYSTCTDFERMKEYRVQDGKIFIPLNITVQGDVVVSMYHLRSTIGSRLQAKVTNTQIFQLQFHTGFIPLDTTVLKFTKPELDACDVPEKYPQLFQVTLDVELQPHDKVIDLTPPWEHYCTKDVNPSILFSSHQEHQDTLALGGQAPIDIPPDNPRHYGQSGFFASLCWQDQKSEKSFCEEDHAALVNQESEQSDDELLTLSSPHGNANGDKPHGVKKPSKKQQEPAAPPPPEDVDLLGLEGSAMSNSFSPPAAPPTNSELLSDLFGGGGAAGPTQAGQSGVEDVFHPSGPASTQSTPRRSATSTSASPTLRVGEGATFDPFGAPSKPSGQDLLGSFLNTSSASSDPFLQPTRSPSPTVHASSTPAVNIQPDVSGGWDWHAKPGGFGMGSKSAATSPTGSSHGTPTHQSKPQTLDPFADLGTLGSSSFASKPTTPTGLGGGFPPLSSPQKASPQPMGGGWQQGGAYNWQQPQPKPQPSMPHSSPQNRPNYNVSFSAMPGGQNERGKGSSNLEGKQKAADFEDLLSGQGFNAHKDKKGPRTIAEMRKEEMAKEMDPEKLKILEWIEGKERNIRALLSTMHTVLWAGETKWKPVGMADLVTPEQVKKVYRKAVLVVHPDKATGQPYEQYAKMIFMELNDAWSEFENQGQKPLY
Test: affinity purification with mass spectrometry

Protein sequences, listed by entry. Tags and fused reporters are not part of them.
UniProt Q9UJY4: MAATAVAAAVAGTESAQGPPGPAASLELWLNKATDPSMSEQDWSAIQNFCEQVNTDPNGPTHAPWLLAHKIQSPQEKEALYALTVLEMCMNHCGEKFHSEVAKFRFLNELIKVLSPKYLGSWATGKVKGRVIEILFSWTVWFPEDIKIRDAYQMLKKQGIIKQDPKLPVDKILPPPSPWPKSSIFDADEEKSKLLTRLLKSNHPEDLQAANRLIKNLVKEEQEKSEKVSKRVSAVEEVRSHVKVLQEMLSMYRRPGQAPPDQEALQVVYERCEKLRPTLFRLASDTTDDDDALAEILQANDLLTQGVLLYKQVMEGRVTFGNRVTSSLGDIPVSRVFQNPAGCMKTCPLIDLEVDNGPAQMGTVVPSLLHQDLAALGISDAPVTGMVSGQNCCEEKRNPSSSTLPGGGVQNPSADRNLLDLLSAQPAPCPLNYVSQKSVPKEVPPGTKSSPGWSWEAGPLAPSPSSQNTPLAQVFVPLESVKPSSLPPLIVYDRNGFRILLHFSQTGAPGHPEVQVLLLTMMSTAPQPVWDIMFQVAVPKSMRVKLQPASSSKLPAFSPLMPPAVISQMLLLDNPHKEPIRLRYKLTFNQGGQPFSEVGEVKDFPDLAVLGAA
UniProt P11142: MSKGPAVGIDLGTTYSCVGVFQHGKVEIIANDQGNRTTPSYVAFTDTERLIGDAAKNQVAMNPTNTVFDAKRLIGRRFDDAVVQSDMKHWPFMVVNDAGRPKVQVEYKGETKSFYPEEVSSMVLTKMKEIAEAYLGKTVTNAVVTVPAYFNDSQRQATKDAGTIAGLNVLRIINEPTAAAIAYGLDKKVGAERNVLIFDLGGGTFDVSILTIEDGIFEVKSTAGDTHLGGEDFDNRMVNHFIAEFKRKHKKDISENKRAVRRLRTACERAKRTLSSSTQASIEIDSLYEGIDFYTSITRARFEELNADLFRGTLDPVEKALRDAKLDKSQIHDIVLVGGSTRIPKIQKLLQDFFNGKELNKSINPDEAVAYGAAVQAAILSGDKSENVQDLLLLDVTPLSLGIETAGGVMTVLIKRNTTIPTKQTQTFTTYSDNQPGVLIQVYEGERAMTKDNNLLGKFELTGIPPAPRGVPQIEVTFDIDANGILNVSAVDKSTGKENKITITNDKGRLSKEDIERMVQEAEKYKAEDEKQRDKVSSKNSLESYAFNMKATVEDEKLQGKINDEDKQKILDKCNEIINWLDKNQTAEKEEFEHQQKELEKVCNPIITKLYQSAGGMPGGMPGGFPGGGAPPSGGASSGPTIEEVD

Row | Substance | binding
1 | GGA2, endogenous in HEK293FT (from UniProt Q9UJY4 1-613) | binds
2 | HSC70, endogenous in HEK293FT (from UniProt P11142 1-646) | binds

Reference: publication doi:10.1101/830802
